According to article PMC3195428:
Numbering of substitutions follows the chain as printed. In names and notes the source's numbering stands. These are yes or no findings as the source states them, for the method shown. Binding seen in cells or lysates may run through a third protein. Some results given as binding are weak or reduced against the parent protein; the word gives no strength. Sequences can lack the tags named with a protein. Each block holds one binder with its values, some of them ahead of it.

Target: T1, GST-PTP1B-DA (D181A substrate-trapping mutant of PTP1B, GST-tagged) (UniProt P18031)
T1 sequence: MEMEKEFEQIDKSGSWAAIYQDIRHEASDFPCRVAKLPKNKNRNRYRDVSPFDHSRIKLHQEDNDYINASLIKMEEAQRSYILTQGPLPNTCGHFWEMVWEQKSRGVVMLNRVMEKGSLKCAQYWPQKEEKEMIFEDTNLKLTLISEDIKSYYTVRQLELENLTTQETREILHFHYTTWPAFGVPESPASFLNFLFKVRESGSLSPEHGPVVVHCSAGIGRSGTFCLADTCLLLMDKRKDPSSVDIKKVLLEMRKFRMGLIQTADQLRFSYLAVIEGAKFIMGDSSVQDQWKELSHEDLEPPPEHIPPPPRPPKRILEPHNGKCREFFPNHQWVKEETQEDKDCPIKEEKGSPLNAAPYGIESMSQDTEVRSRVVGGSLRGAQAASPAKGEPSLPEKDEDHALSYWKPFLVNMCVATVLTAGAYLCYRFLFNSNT
Assay: pull-down; Cos-1 cells co-transfected with GST-tagged PTP (pEBG) and nephrin or fyn; lysate (250 ug protein; 25 mM HEPES pH 7.5, 1% Triton X-100, 10 mM MgCl2, 100 mM NaCl, 5% glycerol) incubated 2 h at 4 C with glutathione-sepharose beads; immunoblotting

binding: binds
B1: rat nephrin Y1152F (protein, UniProt Q9R044 37-1252)
chain: ESPVPTSAPRGFWALSENLTAVEGTTVKLWCGVRAPGSVVQWAKDGLLLGPNPKMPGFPRYSLEGDRAKGEFHLLIEACDLSDDAEYECQVGRSELGPELVSPKVILSILVSPKVLLLTPEAGSTVTWVAGQEYVVTCVSGDAKPAPDITFIQSGRTILDVSSNVNEGSEEKLCITEAEARVIPQSSDNGQLLVCEGSNPALDTPIKASFTMNILFPPGPPVIDWPGLNEGHVRAGENLELPCTARGGNPPATLQWLKNGKPVSTAWGTEHAQAVAHSVLVMTVRPEDHGARLSCQSYNSVSAGTQERSITLQVTFPPSAITILGSVSQSENKNVTLCCLTKSSRPRVLLRWWLGGRQLLPTDETVMDGLHGGHISMSNLTFLVRREDNGLPLTCEAFSDAFSKETFKKSLTLNVKYPAQKLWIEGPPEGQYIRTGTRVRLVCLAIGGNPDPSLIWFKDSRPVSEPRQPQEPRRVQLGSVEKSGSTFSRELVLIIGPPDNRAKFSCKAGQLSASTQLVVQFPPTNLTILANSSALRPGDALNLTCVSISSNPPVNLSWDKEGERLEDVAAKPQSAPFKGSAASRSVFLRVSSRDHGQRVTCRAHSEALRETVSSFYRFNVLYPPEFLGEQVRAVTVVEQGQVLLPVSVSANPAPEAFNWTFRGYRLSPAGGPRHRILSGGALQLWNVTRADDGFYQLHCQNSEGTAEALLKLDVHYAPTIRALRDPTEVNVGGSVDIVCTVDANPILPEMFSWERLGEEEEDLNLDDMEKVSKGSTGRLRIRQAKLSQAGAYQCIVDNGVAPAARGLVRLVVRFAPQVDQPTPLTKVAAAGDSTSSATLHCRARGVPNIDFTWTKNGVPLDLQDPRYTEHRYHQGVVHSSLLTIANVSAAQDYALFKCTATNALGSDHTNIQLVSISRPDPPLGLKVVSISPHSVGLEWKPGFDGGLPQRFQIRYEALETPGFLHVDVLPTQATTFTLTGLKPSTRYRIWLLASNALGDSGLTDKGIQVSVTTPGPDQAPEDTDHQLPTELPPGPPRLPLLPVLFAVGGLLLLSNASCVGGLLWRRRLRRLAEEISEKTEAGSEDRIRNEYEESQWTGDRDTRSSTVSTAEVDPNFYSMRDFSPQLPPTLEEVLYHQGAEGEDMAFPGHLHDEVERAYGPPGAWGPLYDEVRMDPYDLRWPEVQCEDPRGIYDQVAADMDAVEASSLPFELRGHLV

binding: no binding
B2: rat nephrin Y1204/1228F (protein, UniProt Q9R044 37-1252)
chain: B1 chain with F1116Y, Y1168F, Y1192F
